The target of this test is integrin α2 I domain (UniProt P17301). The test can be described thus: SEC; 6xHis-tagged I domains on Superdex 200 Increase 10/300 GL in integrin storage buffer (20 mM tris-HCl pH 7.4, 150 mM NaCl, 1 mM MgCl2, 1 mM CaCl2); both purified. A general note: SEC sorts molecules by how far they enter the pores of the column.

By UniProt entry, the sequences of proteins in these tests, tags left out. Residues count along the entry.
UniProt P17301, residues 174-365: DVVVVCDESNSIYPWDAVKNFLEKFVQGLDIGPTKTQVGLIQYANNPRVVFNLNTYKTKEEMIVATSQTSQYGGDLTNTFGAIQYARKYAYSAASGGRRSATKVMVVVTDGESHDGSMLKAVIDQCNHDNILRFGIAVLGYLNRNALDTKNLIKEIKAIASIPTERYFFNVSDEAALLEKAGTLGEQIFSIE

These are yes or no findings as the source states them, for the method shown.

In the case of “integrin α2 I domain (from UniProt P17301 174-365) (domain or fragment)”, the binding entry is given as “no binding”.
